These results are taken from paper PMC9433385.

Protein sequences, listed by entry. Tags and fused reporters are not part of them.
UniProt Q99J09: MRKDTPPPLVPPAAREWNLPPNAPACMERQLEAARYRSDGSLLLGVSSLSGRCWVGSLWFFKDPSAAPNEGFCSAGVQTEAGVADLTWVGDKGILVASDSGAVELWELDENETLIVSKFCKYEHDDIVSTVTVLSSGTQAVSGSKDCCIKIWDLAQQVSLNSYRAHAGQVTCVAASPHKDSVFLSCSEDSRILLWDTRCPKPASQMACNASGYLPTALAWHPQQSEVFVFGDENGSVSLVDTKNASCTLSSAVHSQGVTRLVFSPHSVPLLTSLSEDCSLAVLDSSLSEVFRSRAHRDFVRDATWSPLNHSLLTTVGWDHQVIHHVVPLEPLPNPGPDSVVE
UniProt A2A432: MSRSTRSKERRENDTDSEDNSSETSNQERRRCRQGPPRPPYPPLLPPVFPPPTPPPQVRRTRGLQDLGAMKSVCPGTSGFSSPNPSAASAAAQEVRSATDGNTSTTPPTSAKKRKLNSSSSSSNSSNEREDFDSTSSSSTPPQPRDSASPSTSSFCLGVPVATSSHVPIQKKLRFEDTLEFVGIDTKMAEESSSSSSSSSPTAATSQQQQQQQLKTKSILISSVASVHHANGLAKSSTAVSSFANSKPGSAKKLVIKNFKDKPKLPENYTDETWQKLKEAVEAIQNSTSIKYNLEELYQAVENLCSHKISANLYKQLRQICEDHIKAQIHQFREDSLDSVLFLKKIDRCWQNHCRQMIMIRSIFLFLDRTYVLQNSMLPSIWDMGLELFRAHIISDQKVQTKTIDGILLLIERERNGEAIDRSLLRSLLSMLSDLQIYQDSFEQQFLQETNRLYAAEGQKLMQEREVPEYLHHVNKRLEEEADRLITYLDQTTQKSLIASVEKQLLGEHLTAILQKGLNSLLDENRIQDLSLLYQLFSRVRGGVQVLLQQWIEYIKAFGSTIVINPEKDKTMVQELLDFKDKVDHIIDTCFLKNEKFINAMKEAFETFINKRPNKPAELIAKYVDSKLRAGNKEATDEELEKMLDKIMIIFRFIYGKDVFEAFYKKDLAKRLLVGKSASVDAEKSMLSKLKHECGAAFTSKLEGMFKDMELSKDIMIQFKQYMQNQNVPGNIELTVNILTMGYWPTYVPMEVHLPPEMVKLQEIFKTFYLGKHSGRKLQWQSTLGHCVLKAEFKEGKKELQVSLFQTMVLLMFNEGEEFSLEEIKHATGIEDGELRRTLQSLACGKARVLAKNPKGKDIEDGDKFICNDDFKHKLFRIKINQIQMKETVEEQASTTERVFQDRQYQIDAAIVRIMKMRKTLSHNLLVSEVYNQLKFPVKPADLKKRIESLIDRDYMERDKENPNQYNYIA

These are yes or no findings as the source states them, for the method shown. For some assays here: Binding seen in cells or lysates may run through a third protein. Some results given as binding are weak or reduced against the parent protein; the word gives no strength. For some assays here: Sequences can lack the tags named with a protein.

The target in assay [1] is GST-WDR77 (UniProt Q99J09). Put plainly: pull-down; purified GST-WDR77 mixed with purified His-tagged protein (25 mM Tris 7.6, 150 mM NaCl, 1 mM DTT), captured with anti-WDR77 antibody and protein A/G sepharose, 2 h at 4 °C; Western blot; both purified. Background: A western blot detects proteins with antibodies after separation by electrophoresis.
For assay [2], the target named is CUL4B (mouse (endogenous in small intestine)) (UniProt A2A432). The assay can be described thus: co-IP; protein extracted from small intestine of mice, immunoprecipitated with the indicated antibodies individually and protein A/G sepharose, 2 h at 4 °C; Western blot.

B1: His-IRGM1 (protein, UniProt Q60766 1-409)
chain: MKPSHSSCEAAPLLPNMAETHYAPLSSAFPFVTSYQTGSSRLPEVSRSTERALREGKLLELVYGIKETVATLSQIPVSIFVTGDSGNGMSSFINALRVIGHDEDASAPTGVVRTTKTRTEYSSSHFPNVVLWDLPGLGATAQTVEDYVEEMKFSTCDLFIIIASEQFSSNHVKLSKIIQSMGKRFYIVWTKLDRDLSTSVLSEVRLLQNIQENIRENLQKEKVKYPPVFLVSSLDPLLYDFPKLRDTLHKDLSNIRCCEPLKTLYGTYEKIVGDKVAVWKQRIANESLKNSLGVRDDDNMGECLKVYRLIFGVDDESVQQVAQSMGTVVMEYKDNMKSQNFYTLRREDWKLRLMTCAIVNAFFRLLRFLPCVCCCLRRLRHKRMLFLVAQDTKNILEKILRDSIFPPQI
For B1, the binding result in assay [1] is “binds”.

B2: immunity-related GTPase family M member 1 (IRGM1) (protein, UniProt Q60766 1-409)
chain: MKPSHSSCEAAPLLPNMAETHYAPLSSAFPFVTSYQTGSSRLPEVSRSTERALREGKLLELVYGIKETVATLSQIPVSIFVTGDSGNGMSSFINALRVIGHDEDASAPTGVVRTTKTRTEYSSSHFPNVVLWDLPGLGATAQTVEDYVEEMKFSTCDLFIIIASEQFSSNHVKLSKIIQSMGKRFYIVWTKLDRDLSTSVLSEVRLLQNIQENIRENLQKEKVKYPPVFLVSSLDPLLYDFPKLRDTLHKDLSNIRCCEPLKTLYGTYEKIVGDKVAVWKQRIANESLKNSLGVRDDDNMGECLKVYRLIFGVDDESVQQVAQSMGTVVMEYKDNMKSQNFYTLRREDWKLRLMTCAIVNAFFRLLRFLPCVCCCLRRLRHKRMLFLVAQDTKNILEKILRDSIFPPQI
Turning to B2, the binding entry in assay [2] is on record as “binds”.
